Data published in the supplement of paper PMC10849652.
The list shows a part of the results.

Amino acid sequences for entries named in this document (tags omitted). A change or cut given only in a name is not applied to a line headed by its entry.
UniProt A8MXV4: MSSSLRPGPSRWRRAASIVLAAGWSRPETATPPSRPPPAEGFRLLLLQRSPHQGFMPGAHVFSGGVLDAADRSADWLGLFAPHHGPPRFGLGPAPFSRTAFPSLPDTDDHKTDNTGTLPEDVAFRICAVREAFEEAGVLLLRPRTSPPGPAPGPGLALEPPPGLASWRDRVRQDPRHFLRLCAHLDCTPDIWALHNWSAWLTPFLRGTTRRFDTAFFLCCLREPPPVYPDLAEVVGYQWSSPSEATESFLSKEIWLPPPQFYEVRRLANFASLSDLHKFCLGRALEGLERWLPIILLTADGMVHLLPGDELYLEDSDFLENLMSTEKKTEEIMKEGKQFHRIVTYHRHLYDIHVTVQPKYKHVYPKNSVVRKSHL
UniProt Q96E22: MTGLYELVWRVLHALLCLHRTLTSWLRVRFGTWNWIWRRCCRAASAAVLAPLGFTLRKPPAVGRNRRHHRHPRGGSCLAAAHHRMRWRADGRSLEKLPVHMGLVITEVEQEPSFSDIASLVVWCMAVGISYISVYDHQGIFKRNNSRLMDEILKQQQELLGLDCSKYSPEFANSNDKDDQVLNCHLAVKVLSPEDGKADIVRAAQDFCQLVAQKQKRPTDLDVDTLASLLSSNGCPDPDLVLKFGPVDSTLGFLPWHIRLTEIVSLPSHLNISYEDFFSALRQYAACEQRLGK
UniProt Q5SWX8: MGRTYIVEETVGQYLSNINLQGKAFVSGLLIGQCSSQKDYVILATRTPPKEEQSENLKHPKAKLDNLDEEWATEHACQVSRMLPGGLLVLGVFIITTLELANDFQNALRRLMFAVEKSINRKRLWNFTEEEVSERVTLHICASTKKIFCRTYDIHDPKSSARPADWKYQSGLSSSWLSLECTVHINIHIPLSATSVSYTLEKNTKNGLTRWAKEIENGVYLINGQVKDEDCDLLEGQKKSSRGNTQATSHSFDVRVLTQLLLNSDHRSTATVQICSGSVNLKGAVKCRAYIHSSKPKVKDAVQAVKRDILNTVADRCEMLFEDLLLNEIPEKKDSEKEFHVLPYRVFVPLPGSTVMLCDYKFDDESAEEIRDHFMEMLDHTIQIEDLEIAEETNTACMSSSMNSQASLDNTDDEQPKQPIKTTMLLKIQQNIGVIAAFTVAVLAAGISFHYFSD
UniProt Q96FW1, whole entry, looked up: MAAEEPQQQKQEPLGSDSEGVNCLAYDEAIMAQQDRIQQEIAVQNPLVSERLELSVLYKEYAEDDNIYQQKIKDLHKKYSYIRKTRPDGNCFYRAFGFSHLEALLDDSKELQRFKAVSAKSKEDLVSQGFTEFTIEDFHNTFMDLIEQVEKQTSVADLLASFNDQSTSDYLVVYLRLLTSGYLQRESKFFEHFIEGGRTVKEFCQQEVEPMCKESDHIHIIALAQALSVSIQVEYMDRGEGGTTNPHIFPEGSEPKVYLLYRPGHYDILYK
UniProt Q9H857: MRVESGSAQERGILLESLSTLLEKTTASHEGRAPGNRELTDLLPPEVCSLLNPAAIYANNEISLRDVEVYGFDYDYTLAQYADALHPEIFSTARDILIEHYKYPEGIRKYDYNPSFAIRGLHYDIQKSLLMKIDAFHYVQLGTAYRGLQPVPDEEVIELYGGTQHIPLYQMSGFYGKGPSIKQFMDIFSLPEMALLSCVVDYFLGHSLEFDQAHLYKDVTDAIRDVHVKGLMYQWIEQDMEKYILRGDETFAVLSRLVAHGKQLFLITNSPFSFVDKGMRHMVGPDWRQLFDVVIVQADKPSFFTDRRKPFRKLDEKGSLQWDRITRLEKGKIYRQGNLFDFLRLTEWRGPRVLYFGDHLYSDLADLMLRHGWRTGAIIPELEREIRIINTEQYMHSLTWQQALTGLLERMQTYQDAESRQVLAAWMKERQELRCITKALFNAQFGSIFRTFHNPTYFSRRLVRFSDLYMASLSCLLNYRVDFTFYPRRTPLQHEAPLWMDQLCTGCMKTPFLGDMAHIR
UniProt Q96SU4: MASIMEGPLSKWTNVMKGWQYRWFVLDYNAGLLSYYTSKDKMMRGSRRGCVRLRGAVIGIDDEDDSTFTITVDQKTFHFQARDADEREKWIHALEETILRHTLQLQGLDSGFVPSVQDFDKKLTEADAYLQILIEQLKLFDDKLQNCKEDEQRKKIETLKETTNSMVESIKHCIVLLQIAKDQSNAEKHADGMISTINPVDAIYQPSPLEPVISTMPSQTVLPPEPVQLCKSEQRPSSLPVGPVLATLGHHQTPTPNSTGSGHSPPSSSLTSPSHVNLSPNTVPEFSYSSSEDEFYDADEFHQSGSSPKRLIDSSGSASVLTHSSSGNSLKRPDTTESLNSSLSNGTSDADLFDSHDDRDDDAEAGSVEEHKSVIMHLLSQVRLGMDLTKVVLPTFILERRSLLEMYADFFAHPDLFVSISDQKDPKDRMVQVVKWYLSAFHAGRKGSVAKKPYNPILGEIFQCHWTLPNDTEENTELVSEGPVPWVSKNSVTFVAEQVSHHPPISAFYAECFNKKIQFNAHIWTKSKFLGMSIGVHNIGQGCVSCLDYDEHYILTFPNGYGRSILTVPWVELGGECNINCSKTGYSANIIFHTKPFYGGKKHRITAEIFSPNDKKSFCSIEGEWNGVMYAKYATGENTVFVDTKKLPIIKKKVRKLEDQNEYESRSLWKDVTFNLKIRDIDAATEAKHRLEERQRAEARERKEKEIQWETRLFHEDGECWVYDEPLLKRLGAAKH
UniProt P37198: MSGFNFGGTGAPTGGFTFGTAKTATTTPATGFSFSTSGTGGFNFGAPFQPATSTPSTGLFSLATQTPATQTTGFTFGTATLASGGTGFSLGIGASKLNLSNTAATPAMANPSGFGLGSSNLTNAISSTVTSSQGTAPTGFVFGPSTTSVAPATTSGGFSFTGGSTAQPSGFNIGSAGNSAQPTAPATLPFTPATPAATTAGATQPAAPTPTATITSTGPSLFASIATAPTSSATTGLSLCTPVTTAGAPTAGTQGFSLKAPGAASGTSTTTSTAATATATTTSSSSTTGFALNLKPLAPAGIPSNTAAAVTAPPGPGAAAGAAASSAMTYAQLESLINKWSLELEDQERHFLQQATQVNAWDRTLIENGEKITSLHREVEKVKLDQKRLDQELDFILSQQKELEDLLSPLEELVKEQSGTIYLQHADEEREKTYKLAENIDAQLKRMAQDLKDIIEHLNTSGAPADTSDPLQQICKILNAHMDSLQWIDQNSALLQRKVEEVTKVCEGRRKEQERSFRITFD
UniProt P49902: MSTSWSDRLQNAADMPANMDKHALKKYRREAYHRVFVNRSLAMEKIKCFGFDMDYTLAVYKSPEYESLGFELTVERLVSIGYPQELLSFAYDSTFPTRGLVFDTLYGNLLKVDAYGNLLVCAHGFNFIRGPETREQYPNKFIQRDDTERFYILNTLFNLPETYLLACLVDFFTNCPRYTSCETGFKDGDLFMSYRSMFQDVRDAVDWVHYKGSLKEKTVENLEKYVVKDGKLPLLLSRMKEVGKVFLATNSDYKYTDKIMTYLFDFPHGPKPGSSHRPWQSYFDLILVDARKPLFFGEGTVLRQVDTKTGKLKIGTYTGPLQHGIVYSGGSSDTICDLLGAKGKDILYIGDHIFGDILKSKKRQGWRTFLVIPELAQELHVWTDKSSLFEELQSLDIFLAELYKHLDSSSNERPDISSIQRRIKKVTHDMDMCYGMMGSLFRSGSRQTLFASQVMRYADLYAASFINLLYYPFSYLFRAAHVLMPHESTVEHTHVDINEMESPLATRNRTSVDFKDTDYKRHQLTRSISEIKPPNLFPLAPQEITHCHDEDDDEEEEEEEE
UniProt Q96G74: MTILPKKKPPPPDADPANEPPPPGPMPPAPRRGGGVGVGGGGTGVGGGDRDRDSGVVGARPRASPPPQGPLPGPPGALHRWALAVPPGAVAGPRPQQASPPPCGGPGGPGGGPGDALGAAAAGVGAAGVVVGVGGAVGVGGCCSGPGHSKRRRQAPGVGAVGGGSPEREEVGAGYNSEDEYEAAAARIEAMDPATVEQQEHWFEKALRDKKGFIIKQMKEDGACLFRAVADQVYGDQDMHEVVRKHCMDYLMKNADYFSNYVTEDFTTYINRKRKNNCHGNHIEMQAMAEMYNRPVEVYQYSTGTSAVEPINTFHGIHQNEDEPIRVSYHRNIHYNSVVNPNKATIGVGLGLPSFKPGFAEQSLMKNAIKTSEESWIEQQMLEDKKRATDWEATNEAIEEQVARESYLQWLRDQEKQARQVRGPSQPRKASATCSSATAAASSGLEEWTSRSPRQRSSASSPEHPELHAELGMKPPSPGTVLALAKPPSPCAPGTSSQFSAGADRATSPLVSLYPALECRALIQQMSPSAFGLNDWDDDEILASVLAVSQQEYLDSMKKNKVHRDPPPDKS
UniProt P11940, whole entry, looked up: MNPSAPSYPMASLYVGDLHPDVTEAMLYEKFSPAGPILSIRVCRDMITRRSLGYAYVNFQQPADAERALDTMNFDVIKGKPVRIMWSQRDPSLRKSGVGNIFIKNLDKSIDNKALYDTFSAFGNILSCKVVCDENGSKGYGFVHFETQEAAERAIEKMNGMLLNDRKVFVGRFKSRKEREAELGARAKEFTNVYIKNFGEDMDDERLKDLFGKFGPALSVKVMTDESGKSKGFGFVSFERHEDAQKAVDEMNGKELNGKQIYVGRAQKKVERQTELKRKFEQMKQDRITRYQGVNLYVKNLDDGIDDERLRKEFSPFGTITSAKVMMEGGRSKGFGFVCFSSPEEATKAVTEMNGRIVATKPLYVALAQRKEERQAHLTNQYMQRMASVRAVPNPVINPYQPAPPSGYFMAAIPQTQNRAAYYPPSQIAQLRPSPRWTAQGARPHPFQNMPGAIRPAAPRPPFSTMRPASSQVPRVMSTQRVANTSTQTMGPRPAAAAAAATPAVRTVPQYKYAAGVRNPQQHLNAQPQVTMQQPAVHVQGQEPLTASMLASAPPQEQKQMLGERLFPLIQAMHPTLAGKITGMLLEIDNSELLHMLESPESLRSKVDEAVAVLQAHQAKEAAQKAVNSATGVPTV
UniProt Q6GQQ9: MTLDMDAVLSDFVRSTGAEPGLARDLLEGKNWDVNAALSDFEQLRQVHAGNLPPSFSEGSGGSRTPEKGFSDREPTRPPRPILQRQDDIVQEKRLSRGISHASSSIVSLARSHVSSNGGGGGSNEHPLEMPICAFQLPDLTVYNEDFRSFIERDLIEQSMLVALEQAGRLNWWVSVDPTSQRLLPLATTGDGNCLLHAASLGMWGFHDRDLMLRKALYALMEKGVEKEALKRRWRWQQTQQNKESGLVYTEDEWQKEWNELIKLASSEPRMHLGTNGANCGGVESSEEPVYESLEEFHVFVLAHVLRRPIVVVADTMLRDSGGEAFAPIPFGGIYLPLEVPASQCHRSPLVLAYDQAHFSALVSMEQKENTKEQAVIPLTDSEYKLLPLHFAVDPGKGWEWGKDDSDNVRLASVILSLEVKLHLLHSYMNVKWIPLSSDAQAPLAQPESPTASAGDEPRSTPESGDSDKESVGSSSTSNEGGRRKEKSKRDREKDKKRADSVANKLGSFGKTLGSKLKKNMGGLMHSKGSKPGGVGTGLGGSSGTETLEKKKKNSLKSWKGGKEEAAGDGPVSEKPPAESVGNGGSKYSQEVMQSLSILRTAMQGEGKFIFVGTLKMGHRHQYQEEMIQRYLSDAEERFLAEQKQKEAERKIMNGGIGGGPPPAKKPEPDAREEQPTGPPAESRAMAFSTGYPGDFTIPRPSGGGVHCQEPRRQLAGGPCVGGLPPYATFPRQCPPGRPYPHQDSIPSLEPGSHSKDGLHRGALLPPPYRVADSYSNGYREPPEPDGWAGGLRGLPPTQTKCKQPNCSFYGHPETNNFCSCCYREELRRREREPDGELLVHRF
UniProt Q32P28: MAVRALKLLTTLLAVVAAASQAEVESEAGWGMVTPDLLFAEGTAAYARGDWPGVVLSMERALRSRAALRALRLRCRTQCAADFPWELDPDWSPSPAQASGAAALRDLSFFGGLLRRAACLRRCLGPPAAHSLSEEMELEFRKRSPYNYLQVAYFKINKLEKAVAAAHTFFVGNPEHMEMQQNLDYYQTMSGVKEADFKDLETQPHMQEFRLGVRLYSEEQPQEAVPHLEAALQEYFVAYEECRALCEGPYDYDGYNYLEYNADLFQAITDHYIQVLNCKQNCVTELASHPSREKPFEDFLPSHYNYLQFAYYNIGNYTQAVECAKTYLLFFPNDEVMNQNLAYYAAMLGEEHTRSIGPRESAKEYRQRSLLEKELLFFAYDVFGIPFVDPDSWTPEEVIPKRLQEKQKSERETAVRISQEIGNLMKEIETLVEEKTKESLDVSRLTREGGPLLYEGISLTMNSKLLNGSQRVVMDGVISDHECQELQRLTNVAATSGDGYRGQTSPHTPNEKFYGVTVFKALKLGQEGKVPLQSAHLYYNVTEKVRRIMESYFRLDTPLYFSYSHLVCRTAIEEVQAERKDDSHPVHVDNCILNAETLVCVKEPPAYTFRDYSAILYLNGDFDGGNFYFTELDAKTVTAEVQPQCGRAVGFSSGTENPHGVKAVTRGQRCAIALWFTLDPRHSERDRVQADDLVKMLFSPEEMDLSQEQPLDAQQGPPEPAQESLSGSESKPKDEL

Columns and labels:
Test in all cases: log2 fold change, soluble protein after heating vs DMSO (PISA); higher = thermal stabilisation; K562 cells, 10 uM, 30 min; active = over 0.2 and 3.5 SD of the protein, either way, in both replicates (recomputed)
[1] = compound: CC[C@@H]1C(=O)N(C)c2cnc(Nc3ccc(C(=O)NC4CCN(C)CC4)cc3OC)nc2N1C1CCCC1
Procedure, shortened: (§1)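 Aliquots of K562 cells (2×10^6 cells/mL) treated with 10 μM compound for 30 min were heated for 3 min over 48°C-58°C. After pooling and extraction in PBS with 0.5% NP-40 at 4°C, soluble protein from a 21,000xg, 90 min spin was quantified by TMTpro 16plex LC-MS/MS with channel sums equalised. Thermal stability is expressed against control samples, from duplicates, as a log2 fold change.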

volasertib = compound: CC[C@@H]1C(=O)N(C)c2cnc(Nc3ccc(C(=O)N[C@H]4CC[C@H](N5CCN(CC6CC6)CC5)CC4)cc3OC)nc2N1C(C)C [volasertib]
Procedure, shortened: as §1

[2] = compound: CC[C@H](C)N1C=C(C2=C(C=C(C=C21)C3=CN=C(C=C3)N4CCNCC4)C(=O)NCC5=C(C=C(NC5=O)C)C)C
Procedure, shortened: as §1

epoxomicin = compound: CC[C@H](C)[C@@H](C(=O)N[C@@H]([C@@H](C)O)C(=O)N[C@@H](CC(C)C)C(=O)[C@]1(CO1)C)NC(=O)[C@H]([C@@H](C)CC)N(C)C(=O)C [epoxomicin]
Procedure, shortened: as §1

[3] = compound: CCn1c(C(=O)N(C2CC2)C2CC2)cc2c3c(ncn3C)c(Nc3cc(C)n(C)n3)nc21
Procedure, shortened: as §1

[4] = compound: CCn1cc(-c2ccnc3[nH]c(-c4cccc(CN(C)C)c4)cc23)c(-c2ccc(NC(=O)N(C)C)cc2)n1
Procedure, shortened: as §1

[5] = compound: CN(C)CC(=O)Nc1ccc2[nH]c(=O)c3ccccc3c2c1
Procedure, shortened: as §1

rosiglitazone = compound: CN(CCOC1=CC=C(C=C1)C[C@H]2C(=O)NC(=O)S2)C3=CC=CC=N3 (racemic) [rosiglitazone]
Procedure, shortened: as §1

[6] = compound: CN1C2=C(C3=C1C(=O)N(N=C3)CC4=CC(=CC=C4)N)SC(=C2)S(=O)C
Procedure, shortened: as §1

[7] = compound: CN1CCC(CNc2ccc3ncc(-c4cccc(OC(F)(F)F)c4)n3n2)CC1
Procedure, shortened: as §1

saracatinib = compound: CN1CCN(CCOc2cc(OC3CCOCC3)c3c(Nc4c(Cl)ccc5c4OCO5)ncnc3c2)CC1 [saracatinib]
Procedure, shortened: as §1

sotrastaurin = compound: CN1CCN(c2nc(C3=C(c4c[nH]c5ccccc45)C(=O)NC3=O)c3ccccc3n2)CC1 [sotrastaurin]
Procedure, shortened: as §1

alvocidib = compound: CN1CC[C@H](c2c(O)cc(O)c3c(=O)cc(-c4ccccc4Cl)oc23)[C@H](O)C1 [alvocidib]
Procedure, shortened: as §1

Tubastatin A = compound: CN1CCc2c(c3ccccc3n2Cc2ccc(C(=O)NO)cc2)C1 [Tubastatin A]
Procedure, shortened: as §1

[8] = compound: CNC(=O)C1=CC=CC=C1NC2=NC(=NC=C2Cl)NC3=C(C=C(C=C3)N4CCOCC4)OC
Procedure, shortened: as §1

defactinib = compound: CNC(=O)c1ccc(Nc2ncc(C(F)(F)F)c(NCc3nccnc3N(C)S(C)(=O)=O)n2)cc1 [defactinib]
Procedure, shortened: as §1

rucaparib = compound: CNCc1ccc(-c2[nH]c3cc(F)cc4c3c2CCNC4=O)cc1 [rucaparib]
Procedure, shortened: as §1

[9] = compound: CNc1nc(-c2ccc3c(N)n[nH]c3c2)cc(N2C[C@@H](C(=O)NC3CCCCC3)CC[C@H]2C)n1
Procedure, shortened: as §1

encorafenib = compound: COC(=O)N[C@@H](C)CNc1nccc(-c2cn(C(C)C)nc2-c2cc(Cl)cc(NS(C)(=O)=O)c2F)n1 [encorafenib]
Procedure, shortened: as §1

[10] = compound: COC(=O)[C@H](CCSC)NC(=O)C1=C(C=C(C=C1)NC[C@H](CS)N)C2=CC=CC=C2
Procedure, shortened: as §1

Measured: log2 fold change

NUDT19 (UniProt A8MXV4)
inactive: [1] -0.02 | volasertib -0.064 | [2] 0.026 | epoxomicin 0.016 | [3] 0.008 | [4] -0.091 | [5] 0.029 | rosiglitazone 0.004 | [6] -0.054 | [7] 0.035 | saracatinib 0.054 | sotrastaurin 0.002 | alvocidib -0.026 | Tubastatin A 0.052 | [8] 0.008 | defactinib -0.049 | rucaparib 0.017 | [9] -0.046 | encorafenib -0.01 | [10] -0.016

OGDH (UniProt Q02218)
inactive: [1] 0.015 | volasertib 0.13 | [2] 0.048 | epoxomicin 0.03 | [3] -0.079 | [4] -0.042 | [5] 0.009 | rosiglitazone 0.087 | [6] 0.06 | [7] 0.087 | saracatinib -0.135 | sotrastaurin -0.087 | alvocidib 0.039 | Tubastatin A 0.1 | [8] -0.034 | defactinib 0.051 | rucaparib 0.075 | [9] 0.151 | encorafenib 0.02 | [10] -0.019

NUS1 (UniProt Q96E22)
inactive: [1] 0.026 | volasertib 0.01 | [2] -0.006 | epoxomicin 0.05 | [3] 0.01 | [4] -0.037 | [5] -0.037 | rosiglitazone -0.023 | [6] -0.025 | [7] 0.066 | saracatinib 0.042 | sotrastaurin 0.049 | alvocidib -0.004 | Tubastatin A -0.066 | [8] 0.047 | defactinib 0.027 | rucaparib -0.06 | [9] -0.023 | encorafenib 0.024 | [10] 0.001

ODR4 (UniProt Q5SWX8)
inactive: [1] 0.001 | volasertib -0.088 | [2] 0.056 | epoxomicin -0.027 | [3] -0.049 | [4] -0.108 | [5] 0 | rosiglitazone 0.087 | [6] -0.043 | [7] 0.025 | saracatinib 0 | sotrastaurin -0.014 | alvocidib -0.086 | Tubastatin A 0.014 | [8] -0.033 | defactinib -0.025 | rucaparib 0.078 | [9] 0.03 | encorafenib 0.012 | [10] 0.027

NT5DC3 (UniProt Q86UY8)
inactive: [1] 0.003 | volasertib -0.009 | [2] 0.015 | epoxomicin 0.053 | [3] 0.021 | [4] 0.1 | [5] 0.002 | rosiglitazone 0.015 | [6] -0.057 | [7] -0.038 | saracatinib 0.041 | sotrastaurin 0.02 | alvocidib -0.081 | Tubastatin A -0.048 | [8] -0.017 | defactinib -0.017 | rucaparib -0.063 | [9] -0.035 | encorafenib -0.015 | [10] 0.021

Two successive records already listed:
ODR4 (UniProt Q5SWX8)
inactive: [1] 0.001 | volasertib -0.088 | [2] 0.056 | epoxomicin -0.027 | [3] -0.049 | [4] -0.108 | [5] 0 | rosiglitazone 0.087 | [6] -0.043 | [7] 0.025 | saracatinib 0 | sotrastaurin -0.014 | alvocidib -0.086 | Tubastatin A 0.014 | [8] -0.033 | defactinib -0.025 | rucaparib 0.078 | [9] 0.03 | encorafenib 0.012 | [10] 0.027

NT5DC3 (UniProt Q86UY8)
inactive: [1] 0.003 | volasertib -0.009 | [2] 0.015 | epoxomicin 0.053 | [3] 0.021 | [4] 0.1 | [5] 0.002 | rosiglitazone 0.015 | [6] -0.057 | [7] -0.038 | saracatinib 0.041 | sotrastaurin 0.02 | alvocidib -0.081 | Tubastatin A -0.048 | [8] -0.017 | defactinib -0.017 | rucaparib -0.063 | [9] -0.035 | encorafenib -0.015 | [10] 0.021

(listing goes on)

OTUB1 (UniProt Q96FW1)
inactive: [1] -0.063 | volasertib -0.109 | [2] 0.019 | epoxomicin 0.055 | [3] -0.001 | [4] -0.032 | [5] 0.007 | rosiglitazone 0.028 | [6] -0.089 | [7] -0.053 | saracatinib 0.06 | sotrastaurin 0.044 | alvocidib -0.031 | Tubastatin A 0.015 | [8] 0.02 | defactinib -0.033 | rucaparib -0.041 | [9] -0.01 | encorafenib 0.014 | [10] 0.014

NT5DC2 isoform 2 (UniProt Q9H857)
inactive: [1] 0.054 | volasertib 0.017 | [2] -0.022 | epoxomicin -0.004 | [3] 0.003 | [4] -0.031 | [5] -0.026 | rosiglitazone -0.056 | [6] -0.018 | [7] 0.024 | saracatinib 0.026 | sotrastaurin 0.086 | alvocidib -0.005 | Tubastatin A -0.035 | [8] -0.001 | defactinib -0.016 | rucaparib -0.009 | [9] -0.036 | encorafenib 0.008 | [10] -0.004

OSBPL9 (UniProt Q96SU4)
inactive: [1] -0.087 | volasertib 0.121 | [2] -0.029 | epoxomicin -0.039 | [3] 0.5 | [4] 0.035 | [5] 0.153 | rosiglitazone 0.111 | [6] 0.118 | [7] 0.127 | saracatinib -0.171 | sotrastaurin -0.23 | alvocidib 0.061 | Tubastatin A 0.097 | [8] -0.041 | defactinib -0.022 | rucaparib 0.298 | [9] 0.422 | encorafenib 0.133 | [10] -0.085

NUP62 (UniProt P37198)
inactive: [1] -0.064 | volasertib -0.137 | [2] 0.041 | epoxomicin 0.011 | [3] -0.046 | [4] 0.002 | [5] 0.027 | rosiglitazone 0.055 | [6] 0.028 | [7] -0.093 | saracatinib -0.134 | sotrastaurin -0.027 | alvocidib -0.061 | Tubastatin A -0.01 | [8] -0.002 | defactinib -0.029 | rucaparib 0.066 | [9] -0.008 | encorafenib 0.037 | [10] 0.02

NUP188 (UniProt Q5SRE5)
inactive: [1] -0.081 | volasertib -0.204 | [2] 0.055 | epoxomicin 0.015 | [3] -0.097 | [4] -0.035 | [5] 0.063 | rosiglitazone 0.132 | [6] -0.03 | [7] -0.07 | saracatinib -0.015 | sotrastaurin -0.064 | alvocidib -0.113 | Tubastatin A 0.048 | [8] -0.002 | defactinib -0.104 | rucaparib 0.024 | [9] 0.045 | encorafenib 0.029 | [10] -0.084

NT5C2 (UniProt P49902)
inactive: [1] 0.016 | volasertib -0.033 | [2] 0.015 | epoxomicin 0.007 | [3] 0.013 | [4] -0.018 | [5] 0.025 | rosiglitazone 0.014 | [6] -0.044 | [7] -0.014 | saracatinib 0.037 | sotrastaurin 0.037 | alvocidib -0.018 | Tubastatin A 0.01 | [8] -0.035 | defactinib -0.043 | rucaparib -0.076 | [9] -0.058 | encorafenib -0.007 | [10] -0.013

OTUD5 isoform 5 (UniProt Q96G74)
inactive: [1] 0.06 | volasertib -0.159 | [2] 0.022 | epoxomicin 0.06 | [3] 0.005 | [4] -0.044 | [5] 0.002 | rosiglitazone 0.056 | [6] -0.043 | [7] -0.05 | saracatinib 0.063 | sotrastaurin -0.034 | alvocidib -0.095 | Tubastatin A 0.05 | [8] -0.01 | defactinib -0.102 | rucaparib -0.04 | [9] -0.008 | encorafenib -0.031 | [10] 0.104

PABPC1 (UniProt P11940)
inactive: [1] 0.135 | volasertib 0.103 | [2] 0.072 | epoxomicin -0.106 | [3] 0.068 | [4] 0.052 | [5] -0.054 | rosiglitazone -0.041 | [6] 0.091 | [7] -0.011 | saracatinib -0.002 | sotrastaurin 0.016 | alvocidib 0.111 | Tubastatin A 0.002 | [8] 0.043 | defactinib 0.098 | rucaparib 0.197 | [9] -0.028 | encorafenib -0.032 | [10] 0.063

OTUD7B (UniProt Q6GQQ9)
inactive: [1] -0.293 | volasertib -0.276 | [2] 0.114 | epoxomicin -0.005 | [3] -0.079 | [4] 0.141 | [5] 0.008 | rosiglitazone 0.325 | [6] 0.081 | [7] -0.242 | saracatinib 0.021 | sotrastaurin -0.392 | alvocidib 0.071 | Tubastatin A 0.083 | [8] 0.063 | defactinib -0.148 | rucaparib -0.122 | [9] -0.027 | encorafenib 0.002 | [10] 0.006

NT5C3A (UniProt Q9H0P0)
inactive: [1] 0.018 | volasertib 0.03 | [2] -0.022 | epoxomicin 0.059 | [3] -0.054 | [4] -0.039 | [5] 0.175 | rosiglitazone 0.061 | [6] 0.149 | [7] -0.053 | saracatinib -0.138 | sotrastaurin -0.207 | alvocidib 0.042 | Tubastatin A 0.057 | [8] 0.072 | defactinib 0.013 | rucaparib 0.143 | [9] 0.153 | encorafenib 0.169 | [10] -0.067

P3H1 (UniProt Q32P28)
inactive: [1] -0.003 | volasertib 0.008 | [2] 0.022 | epoxomicin -0.006 | [3] 0.009 | [4] 0.054 | [5] -0.017 | rosiglitazone -0.05 | [6] 0.088 | [7] 0.113 | saracatinib -0.094 | sotrastaurin -0.038 | alvocidib 0.03 | Tubastatin A 0.068 | [8] 0.027 | defactinib 0.071 | rucaparib 0.069 | [9] 0.046 | encorafenib 0.076 | [10] -0.026
